Among the data in PubChem BioAssay AID1332 (Southern Research Institute, 2008) are IC50 and CC50 values, retold here.

In brackets after ≈: the same amount, converted by molar mass. This is one part of the list. These are further read-outs of the screen, such as a control signal, another cell line or another target. No call is given for them. Starred links: 1 amine or outer side, 2 acyl side, 3 side chain; linkers in the order of their positions; H or OH if unused. Positions of bridges follow the written chain, without caps; N, C: chain ends. Non-standard residues stand in square brackets, D forms with d. Residues, ends and D or L forms follow the SMILES beside them. *: point of attachment. X2 = NC1=N[C@@H]([C@H](N[*:1])C(=O)[*:2])C[C@H](O)N1; ΔAla(Z-3-ureido) = NC(=O)N/C=C(\N)C(=O)O; β3hOrn = NCCC[C@H](N)CC(=O)*; Dap = NC[C@H](N)C(=O)O

This experiment is described as follows: Mycobacterium tuberculosis H37Rv growth inhibition, confirmatory dose response, cytotoxicity (AID 1332).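 For CC50: Vero cells exposed to compounds for 72 hours.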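 For IC50: bacteria incubated 7 days before adding Alamar blue readout reagent.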 Conditions: M. tuberculosis H37Rv growth inhibition; CC50: measured here: Vero cell cytotoxicity; IC50: measured here: IC50 H37Rv replicates.
For orientation: IC50 means the midpoint of a concentration-inhibition curve. A lower IC50 goes with greater potency. For the compound `CNC(=O)Oc1ccc2c(c1)[C@]1(C)CCN(C)[C@@H]1N2C`, the IC50 was above 20 µg/mL.

Turning to `CN1CCC(OC(c2ccccc2)c2ccccc2)CC1`, the IC50 is above 20 µg/mL.

`CN(C)C(=O)Oc1cccc([N+](C)(C)C)c1` displayed an IC50 above 20 µg/mL.

On to `CN(C)CCCN1c2ccccc2CCc2ccccc21`, for which the IC50 is above 20 µg/mL.

`NC(CO)C(=O)NNCc1ccc(O)c(O)c1O` (configuration not stated) yielded an IC50 above 20 µg/mL.

Turning to `NCCC[C@H](N)CC(=O)N[C@H]1CNC(=O)[C@H]([C@H]2C[C@H](O)NC(N)=N2)NC(=O)/C(=C/NC(N)=O)NC(=O)[C@H](CO)NC(=O)[C@H](CO)NC1=O` (β3hOrn-[Dap]SS[ΔAla(Z-3-ureido)][X2]; lactam 1-C), the concentration for half-maximal inhibition (IC50) was 0.0415 µg/mL (≈ 0.0605 µM).

`O=C(O)CCCC[C@@H]1SC[C@@H]2NC(=O)N[C@@H]21` had an IC50 above 20 µg/mL.

As for `COCC(=O)Nc1c(I)c(C(=O)NCC(O)CO)c(I)c(C(=O)N(C)CC(O)CO)c1I` (configuration not stated), the concentration for half-maximal inhibition (IC50) was above 20 µg/mL.

Turning to `CC1COc2c(N3CCN(C)CC3)c(F)cc3c(=O)c(C(=O)O)cn1c23` (configuration not stated), the IC50 is 0.057 µg/mL (≈ 0.158 µM).

Consider `C[C@H](CCC(=O)O)[C@H]1CC[C@H]2[C@@H]3CC[C@@H]4C[C@H](O)CC[C@]4(C)[C@H]3CC[C@]12C`, for which the half-maximal inhibitory concentration (IC50) was above 20 µg/mL.

`CC(=O)SCC(Cc1ccccc1)C(=O)NCC(=O)OCc1ccccc1` (configuration not stated) showed an IC50 above 20 µg/mL.

Compound `COC(=O)C1=C(C)NC(C)=C(C(=O)OC(C)C)C1c1cccc2nonc12` (configuration not stated) had an IC50 above 20 µg/mL.

Usually CC50 stands for the concentration at which the toxic effect on the cells reaches its halfway point. High values mean better tolerance by the cells, low ones harm at low concentration. For `CC[C@@]1([C@@H]2O[C@@H]([C@H]3O[C@@](O)(CO)[C@H](C)C[C@@H]3C)C[C@@H]2C)CC[C@H]([C@]2(C)CC[C@]3(C[C@H](O)[C@@H](C)[C@@H]([C@@H](C)[C@@H](OC)[C@H](C)C(=O)O)O3)O2)O1` (stereo in doubt), the CC50 came out at 2.05 µg/mL (≈ 3.05 µM) and the IC50 came to 2.25 µg/mL (≈ 3.36 µM).

Turning to `CC(C)C(=O)Nc1ccc([N+](=O)[O-])c(C(F)(F)F)c1`, the CC50 is above 6 µg/mL and the IC50 was above 20 µg/mL.

In turn, `CN(C)[C@@H]1C(=O)C(C(N)=O)=C(O)[C@@]2(O)C(=O)C3=C(O)c4c(O)ccc(Cl)c4[C@@H](O)[C@H]3C[C@@H]12` returned an IC50 of 1.51 µg/mL (≈ 3.26 µM).

`CN1Cc2c(N)cccc2C(c2ccccc2)C1` (configuration not stated) showed an IC50 above 20 µg/mL.

As for `CCN[C@@H]1C[C@H](N)[C@@H](O[C@H]2OC(CN)=CC[C@H]2N)[C@H](O)[C@H]1O[C@H]1OC[C@](C)(O)[C@H](NC)[C@H]1O`, the half-inhibitory concentration (IC50) is above 20 µg/mL.

`CCCOc1ccccc1-c1nc2n[nH]nc2c(=O)[nH]1` returned an IC50 above 20 µg/mL.

`CCN(CC)CCOc1ccc(/C(=C(/Cl)c2ccccc2)c2ccccc2)cc1` displayed a 50% cytotoxic concentration (CC50) above 6 µg/mL and an IC50 of 4.06 µg/mL (≈ 10 µM).

For the compound `O=C(c1ccccc1)c1ccc2n1CCC2C(=O)O` (configuration not stated), the IC50 was above 20 µg/mL.

The compound `CCCSc1ccc2nc(NC(=O)OC)[nH]c2c1` displayed a CC50 above 6 µg/mL and an IC50 above 20 µg/mL.

In turn, `C#CCN(C)[C@H](C)Cc1ccccc1` registered an IC50 above 20 µg/mL.

With `COc1ccccc1OCC(O)COC(N)=O` (configuration not stated), the IC50 is above 20 µg/mL.

For `Cc1cc(N)c2ccccc2[n+]1CCCCCCCCCC[n+]1c(C)cc(N)c2ccccc21`, the CC50 was above 6 µg/mL and the IC50 was determined as 1.34 µg/mL.

Consider `Nc1c2c(nc3ccccc13)CCCC2O` (configuration not stated), for which the IC50 was above 20 µg/mL.

Regarding `CC(C)C[C@H]1C(=O)N2CCC[C@H]2[C@]2(O)O[C@](NC(=O)[C@@H]3C=C4c5cccc6[nH]c(Br)c(c56)CC4N(C)C3)(C(C)C)C(=O)N12` (some centres not stated), the half-inhibitory concentration (IC50) was above 20 µg/mL.

With `CCN1C[C@]2(COC)CC[C@H](O)[C@]34C1[C@H](C[C@H]23)[C@@]1(O)C[C@H](OC)[C@H]2C[C@@H]4[C@@H]1[C@H]2OC(C)=O`, the IC50 is above 20 µg/mL.

Take `CC(N=C(NC#N)Nc1ccncc1)C(C)(C)C` (configuration not stated): the IC50 is above 20 µg/mL.

In the case of `CC(=O)OCC(=O)[C@@]1(OC(C)=O)[C@@H](C)C[C@H]2[C@@H]3C[C@H](F)C4=CC(=O)C=C[C@]4(C)[C@@]3(F)[C@@H](O)C[C@@]21C`, the IC50 is above 20 µg/mL.

The compound `CCCOc1ccc(C(=O)OCCN(CC)CC)cc1N` came in with an IC50 above 20 µg/mL.

On to `O=c1[nH]c2ccccc2n1C1CCN(CCCC(c2ccc(F)cc2)c2ccc(F)cc2)CC1`, for which the 50% cytotoxic concentration (CC50) is 5.04 µg/mL (≈ 10.9 µM) and the IC50 stood at 1.62 µg/mL (≈ 3.51 µM).

For the compound `C#C[C@]1(O)CC[C@H]2[C@@H]3CCC4=CC(=O)CC[C@@H]4[C@H]3CC[C@@]21CC`, the IC50 was above 20 µg/mL.

In the case of `CC1(C)[C@@H](OC(=O)CCC(=O)O)CC[C@]2(C)[C@H]3C(=O)C=C4[C@@H]5C[C@@](C)(C(=O)O)CC[C@]5(C)CC[C@@]4(C)[C@]3(C)CC[C@@H]12`, the IC50 was above 20 µg/mL.

Compound `C=CCOC(Cn1ccnc1)c1ccc(Cl)cc1Cl` (configuration not stated) yielded an IC50 of 1.81 µg/mL (≈ 6.08 µM).

As for `Cc1cc2c(C(C)C)c(O)c(O)c(C=O)c2c(O)c1-c1c(C)cc2c(C(C)C)c(O)c(O)c(C=O)c2c1O`, the CC50 turned out to be 4.7 µg/mL (≈ 9.07 µM) and the IC50 is above 20 µg/mL.

`CO[C@@H]1[C@@H](O[C@@H]2O[C@H](C)[C@@H](O[C@H]3C[C@@](C)(OC(=O)CC(C)C)[C@@H](O)[C@H](C)O3)[C@H](N(C)C)[C@H]2O)[C@@H](CC=O)C[C@@H](C)[C@@H](O)/C=C/C=C/C[C@@H](C)OC(=O)C[C@H]1OC(C)=O` came in with an IC50 above 20 µg/mL.

The compound `O=C(/C=C/c1ccc(O)c(O)c1)O[C@@H]1C[C@](O)(C(=O)O)C[C@@H](O)[C@H]1O` displayed an IC50 above 20 µg/mL.

The compound `c1ccc(CN(CC2=NCCN2)c2ccccc2)cc1` showed an IC50 above 20 µg/mL.

In turn, `C=CCSCC1Nc2cc(Cl)c(S(N)(=O)=O)cc2S(=O)(=O)N1` (configuration not stated) registered an IC50 above 20 µg/mL.

Consider `CN1C2CCC1CC(OC(=O)C(CO)c1ccccc1)C2` (configuration not stated), for which the IC50 was above 20 µg/mL.

In turn, `CCOC(=O)c1ccc(N)cc1` had an IC50 above 20 µg/mL.

As to `OC(CCCN1CCCCC1)(c1ccccc1)c1ccccc1`, the IC50 is above 20 µg/mL.

`C[C@]12CC[C@@H]3c4ccc(OS(=O)(=O)O)cc4CC[C@H]3[C@@H]1CCC2=O` showed an IC50 above 20 µg/mL.

In the case of `Cc1ccc(S(=O)(=O)NC(=O)NN2CCCCCC2)cc1`, the IC50 is above 20 µg/mL.

For `CCC(=O)OC(Cc1ccccc1)(c1ccccc1)C(C)CN(C)C` (configuration not stated), the IC50 was above 20 µg/mL.

Compound `Cc1ccsc1/C=C/C1=NCCCN1C` returned an IC50 above 20 µg/mL.

`CCN(CC)CCNc1ccc(CO)c2sc3ccccc3c(=O)c12` displayed a CC50 of 3 µg/mL (≈ 8.41 µM) and an IC50 of 10.8 µg/mL (≈ 30.3 µM).

For the compound `O=C(COc1ccc(Cl)cc1)N1CCN(Cc2ccc3c(c2)OCO3)CC1`, the IC50 is above 20 µg/mL.

Compound `CN(Cc1cnc2nc(N)nc(N)c2n1)c1ccc(C(=O)N[C@@H](CCC(=O)O)C(=O)O)cc1` showed a CC50 of 0.023 µg/mL (≈ 0.0506 µM) and a 50% inhibitory concentration (IC50) above 20 µg/mL.

As to `CC1=C(/C=C/C(C)=C/C=C/C(C)=C\C(=O)O)C(C)(C)CCC1`, the IC50 is above 20 µg/mL.

Turning to `CC/C(=C(/CC)c1ccc(O)cc1)c1ccc(O)cc1`, the CC50 was above 6 µg/mL and the IC50 is above 20 µg/mL.

In turn, `CSc1ccc2c(c1)N(CCC1CCCCN1C)c1ccccc1S2` (configuration not stated) had a half-maximal cytotoxic concentration (CC50) above 6 µg/mL and an IC50 of 2.28 µg/mL (≈ 6.14 µM).

Compound `NC(N)=Nc1nc(CSCC/C(N)=N/S(N)(=O)=O)cs1` yielded an IC50 above 20 µg/mL.

For the compound `COc1cc(NC(C)CCCN)c2ncccc2c1` (configuration not stated), the IC50 was 11.6 µg/mL (≈ 44.6 µM).

On to `CCCCNc1c(C(=O)OCC)c(C)nc2c1cnn2CC`, for which the CC50 was above 6 µg/mL and the half-inhibitory concentration (IC50) was above 20 µg/mL.
